# Results deposited as PubChem BioAssay AID1508597 (Cure First, 2020).
# Purpose: 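Genes whose silencing sensitises or protects ovarian cancer cells against rucaparib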 (primary screen)
# Cell system: human ovarian carcinoma lines grown from tumours: OCI-P5x (papillary serous) and OCI-C5x (clear cell)
# Knock-down reagent: siRNA pool against human genes, 1.25 pmol siRNA per well
# Timing: 72 h or 96 h, depending on the cell culture
# Treatment: rucaparib 20 µM (about IC30) or vehicle, present until read-out
# Rucaparib or vehicle: Rucaparib
# Cell line: OCI-P5x (serous)
# Measured: 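Luminescent ATP-based viability assay read 72 or 96 h after transfection, depending on culture, given as normalised percent viability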
# Reading the numbers: viability, normalised: higher = more viable cells remaining
# Hit rule: 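a well counts as a hit if its normalised viability is under 80 percent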
# Meaning of the calls: active = viability under 80%; inactive = viability 80% or more
# Shown is a random part of the about 2,100 reagents, under one of the conditions tested. 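Calls flag viability under 80% in either arm, not effects specific to rucaparib; the reference for percent is not stated.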 Some reagents were tested in more than one well and are listed for each. Not given: the 100% reference.
gene symbol,technical replicate,"viability, normalised (%)",Outcome
PRPF19 (pre-mRNA processing factor 19),1,42.6,active
PRPF19 (pre-mRNA processing factor 19),1,34.8,active
PRPF19 (pre-mRNA processing factor 19),2,52.4,active
PRPF19 (pre-mRNA processing factor 19),2,38.1,active
PRPF19 (pre-mRNA processing factor 19),3,52.1,active
PRPF19 (pre-mRNA processing factor 19),3,52.7,active
PRMT9 (protein arginine methyltransferase 9),1,32.1,active
PRMT9 (protein arginine methyltransferase 9),2,34,active
PRMT9 (protein arginine methyltransferase 9),3,35.9,active
PIK3C2G,1,101,inactive
PIK3C2G,2,94.5,inactive
PIK3C2G,3,106,inactive
DCLRE1B (DNA cross-link repair 1B),1,68.8,active
DCLRE1B (DNA cross-link repair 1B),2,52.2,active
DCLRE1B (DNA cross-link repair 1B),3,32.2,active
TDRD7 (tudor domain containing 7),1,58.7,active
TDRD7 (tudor domain containing 7),2,57.7,active
TDRD7 (tudor domain containing 7),3,46.8,active
ATXN7L3 (ataxin 7 like 3),1,58.7,active
ATXN7L3 (ataxin 7 like 3),2,72.3,active
ATXN7L3 (ataxin 7 like 3),3,64.1,active

Part of the list above in another layout:
| gene symbol | technical replicate | viability, normalised (%) | Outcome |
| --- | --- | --- | --- |
| PIK3C2G | 3 | 106 | inactive |
| DCLRE1B (DNA cross-link repair 1B) | 1 | 68.8 | active |
| DCLRE1B (DNA cross-link repair 1B) | 2 | 52.2 | active |
| DCLRE1B (DNA cross-link repair 1B) | 3 | 32.2 | active |
| TDRD7 (tudor domain containing 7) | 1 | 58.7 | active |
| TDRD7 (tudor domain containing 7) | 2 | 57.7 | active |
| TDRD7 (tudor domain containing 7) | 3 | 46.8 | active |
| ATXN7L3 (ataxin 7 like 3) | 1 | 58.7 | active |
| ATXN7L3 (ataxin 7 like 3) | 2 | 72.3 | active |

Continued.
gene symbol,technical replicate,"viability, normalised (%)",Outcome
MAP3K5 (mitogen-activated protein kinase kinase kinase 5),1,116,inactive
MAP3K5 (mitogen-activated protein kinase kinase kinase 5),2,129,inactive
MAP3K5 (mitogen-activated protein kinase kinase kinase 5),3,102,inactive
PAK6 (p21 (RAC1) activated kinase 6),1,89.3,inactive
PAK6 (p21 (RAC1) activated kinase 6),1,100,inactive
PAK6 (p21 (RAC1) activated kinase 6),2,87.7,inactive
PAK6 (p21 (RAC1) activated kinase 6),2,94.2,inactive
PAK6 (p21 (RAC1) activated kinase 6),3,99.1,inactive
PAK6 (p21 (RAC1) activated kinase 6),3,89.6,inactive
MYO3A (myosin IIIA),1,101,inactive
MYO3A (myosin IIIA),2,90.7,inactive
MYO3A (myosin IIIA),3,71.4,active
TRIM66 (tripartite motif containing 66),1,86.8,inactive
TRIM66 (tripartite motif containing 66),2,92.3,inactive
TRIM66 (tripartite motif containing 66),3,76.3,active
HMGA2 (high mobility group AT-hook 2),1,51.1,active
HMGA2 (high mobility group AT-hook 2),2,61,active
HMGA2 (high mobility group AT-hook 2),3,52.3,active
MOV10 (Mov10 RNA helicase),1,49.4,active
MOV10 (Mov10 RNA helicase),2,55.9,active
MOV10 (Mov10 RNA helicase),3,43.7,active
ARRB1 (arrestin beta 1),1,90.1,inactive
ARRB1 (arrestin beta 1),2,92.1,inactive
ARRB1 (arrestin beta 1),3,101,inactive
"RAB38 (RAB38, member RAS oncogene family)",1,78.3,active
"RAB38 (RAB38, member RAS oncogene family)",2,93.6,inactive
"RAB38 (RAB38, member RAS oncogene family)",3,79.7,active
ARSA (arylsulfatase A),1,64.3,active
ARSA (arylsulfatase A),2,98.6,inactive
ARSA (arylsulfatase A),3,84.2,inactive
FANCE (FA complementation group E),1,68.6,active
FANCE (FA complementation group E),2,78.7,active
FANCE (FA complementation group E),3,70,active
DHX8 (DEAH-box helicase 8),1,50,active
DHX8 (DEAH-box helicase 8),2,48.4,active
DHX8 (DEAH-box helicase 8),3,52.9,active
